Measurements published in patent US20260263429A1, “INHIBITORS OF CA 2+/CALMODULIN-DEPENDENT PROTEIN KINASE II (CAMKII) THAT DO NOT INHIBIT LONG-TERM POTENTIATION (LTP) INDUCTION AND THERAPEUTIC USES THEREOF” (The Regents of the University of Colorado, A Body Corporate, priority 2023, published 2026).
For at least one compound, name, drawing or mass did not settle the structure.

Test system: CaMKII movement to excitatory synapses
Test: cLTP-induced CaMKII movement to excitatory synapses in the presence of soluble oligomeric Aβ
Assay type: cell-based
Settings: 0.5 μM Aβ, inhibitor 10 μM, 45 minutes prior to cLTP

`COc1cc(Nc2c(C#N)cnc3cc(OCCCN4CCN(C)CC4)c(OC)cc23)c(Cl)cc1Cl` [bosutinib] was tested, and the “rescue of Aβ-blocked cLTP-induced movement of CaMKII to the synapses” value was “rescued”.
